Source: PubChem BioAssay AID493014 (National Center for Advancing Translational Sciences (NCATS), 2011)
About 170 (0.05%) of roughly 340,000 compounds were called active. Inconclusive means that the source gave no clear call. Such entries were picked first, then a sample of the others. Calls come from the whole dose curve; as a rule, active = well fitted inhibition curve with a large enough effect in the signal ratio, with a control signal flat (not every such curve was filed as active); inconclusive = small, poorly fitted or top-dose-only effect, or effect the other way, or a change in a side signal; inactive = flat fitted curve, though single readings scatter; the % refers to the signal ratio. Potencies beside an inconclusive call are fits to weak or partial responses and may not hold up.

Assay: qHTS Assay to Find Inhibitors of Chronic Active B-Cell Receptor Signaling;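 for activity change, negative = inhibition: plate controls were basal doxycycline-induced cells for no effect and cells given 10 µM MG132 for full effect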
Conditions: ABC-DLBCL IkBa-CBG/CBR reporter, luminescence ratio (green luciferase fused to IkBa over red control in TMD8 lymphoma cells), 4 h; activity change, negative = inhibition: at 46.1 µM (top of the series) unless noted
Method in brief: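 TMD8 ABC-DLBCL cells carrying doxycycline-inducible green luciferase fused to IkappaBalpha plus unfused red luciferase were exposed to compounds (up to 46 uM) for 4 hrs at 37C. Activity came from the overlap-corrected green/red luminescence ratio.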
Potency is the fitted concentration of half-maximal effect.

Structure (SMILES)	activity change, negative = inhibition	Potency
COc1ccc(C2CC3(CC(C)(C)NC(=S)N3)Oc3cc(O)cc(C)c32)cc1 (configuration not stated)	inconclusive: 12%	–
CCc1ccc(OCc2nnc(SCc3ccc(C(=O)O)cc3)o2)cc1	–	inconclusive: 0.891 µM [falling, partial curve, poor fit]
COC(=O)Cn1c(=O)c2c(nc(Br)n2Cc2ccccc2Cl)n(C)c1=O	–	inconclusive: 0.562 µM [falling, partial curve, poor fit]
COc1ccccc1N(C)S(=O)(=O)c1ccc(Cl)c(C(=O)NCc2ccco2)c1	inconclusive: -20.9%	–
O=C(C1=C[C@H](c2csc3ccccc23)C[C@H](OCc2ccc(CO)cc2)O1)N1CCOCC1	inactive: -16.4%	–
COc1ccc(C)cc1NC(=O)c1cccc(-c2ccc(OC(C)=O)cc2)c1	inconclusive: 29.1%	–
CCCCn1c(O)c(N=Nc2ccccn2)c2ccccc21	inconclusive: 8.1%	–
Cc1ccc(C2(C)NC(=O)N(CC(=O)NC(C)c3ccccc3)C2=O)cc1 (configuration not stated)	inconclusive: 1.28%	–
COc1ccc(NC(=O)CN2CCCCC2)cc1S(=O)(=O)N1CCCCC1	inactive: -0.97%	–
CCCCn1nnc(NC(=O)COc2ccc(Cl)c(C)c2)n1	–	inconclusive: 18.4 µM [falling, single point]
COc1cccc(CN2C(=O)CCC2(C)C(=O)NC2CCCC2)c1 (configuration not stated)	inconclusive: 12.2%	–
C=CCNC(=O)/C(C#N)=C/c1c(N(Cc2ccccc2)Cc2ccccc2)nc2ccccn2c1=O	inconclusive: 5.28%	–
CCOc1cc(N2CCOCC2)c(OCC)cc1NC(=O)COC(=O)CCOc1cc(C)ccc1C	inconclusive: -7.14%	–
CCCC(C)C(=O)N(Cc1ccccc1)c1ccccn1 (configuration not stated)	inconclusive: 15.6%	–
C=CCOC(=O)C(C#N)c1nc2ccccc2nc1N1CCCC1 (configuration not stated)	inconclusive: 15.7%	–
N/C(=N\O)c1ccc([N+](=O)[O-])s1	inactive: 16.7%	–
CCCCC(O)(CCCC)C(=O)NN(C(=O)CCl)c1ccccc1	inconclusive: 14.6%	–
O=C(NCCc1ccc(F)cc1)c1coc(=O)c(Br)c1	–	inconclusive: 35.5 µM [falling, single point]
NC(=O)CSc1nc2scc(-c3ccc(Cl)cc3)c2c(=O)n1Cc1ccccc1	–	inconclusive: 36.6 µM [falling, partial curve, poor fit]
Cc1cc(O)c(-c2cc(C(=O)Nc3ccc(S(=O)(=O)N4CCOCC4)cc3)[nH]n2)cc1C	–	inconclusive: 23.1 µM [falling, single point]
COc1ccccc1N1CCN(C(CNS(C)(=O)=O)c2cccnc2)CC1 (configuration not stated)	inconclusive: -2.94%	–
Cn1c(-[n+]2c(-c3ccccc3)cc(-c3ccccc3)cc2-c2ccccc2)nc2c([N+](=O)[O-])cccc21	inactive: 1.36%	–
CCCCNC(=O)/C(C#N)=C/c1ccc(-c2ccc(S(=O)(=O)N3CCOCC3)cc2)o1	inactive: 2.56%	–
O=C1CN(c2ccccc2F)C(=O)CN1c1ccccc1F	inconclusive: 2.15%	–
CCN(CCCNC(=O)Cn1ncc2c(=O)oc3ccccc3c21)c1cccc(C)c1	inconclusive: -9.14%	–
O=C(/C=C/c1ccc([N+](=O)[O-])cc1)N1CCN(S(=O)(=O)c2ccccc2)CC1	inconclusive: 3.04%	–

Structure (SMILES)	activity change, negative = inhibition	Potency
Cc1c(C(=O)N/N=C/c2ccoc2)cccc1[N+](=O)[O-]	inconclusive: 0.558%	–
COc1ccc(C(=O)CN(Cc2ccccc2)C2=NCCS2)cc1	inactive: -6.12%	–
Cc1ccc(-c2nc(C(=O)NCC3CCCO3)cc3c2[nH]c2ccccc23)cc1 (configuration not stated)	–	inconclusive: 1.12 µM [rising, full curve, poor fit]
CCCN1C(=O)/C(=C/c2ccc(C)o2)SC1=Nc1ccc(OCC)cc1	inactive: 0.671%	–
Cc1cc(C)n(CCC(=O)N/N=C/c2ccccc2O)n1	inactive: 0.0821%	–
O=C(CCS(=O)(=O)c1ccc(Cl)cc1)N1CCN(c2ccccc2F)CC1	inconclusive: 7.22%	–
O=C(Cn1c(=O)n(Cc2ccco2)c(=O)c2ccccc21)Nc1cccc(Cl)c1	inconclusive: 1.63%	–
CCN(CC(=O)Nc1c(F)cccc1F)C(=O)/C=C/c1ccc(C)cc1	–	inconclusive: 23.1 µM [falling, partial curve]
CCN1CCc2nc(NC(=O)Cc3ccc4c(c3)OCCO4)sc2C1	inconclusive: 5.71%	–
CCOC(=O)c1sc(N)c(C(N)=O)c1C	inconclusive: -1.29%	–
CCCn1c(CCc2ccccc2)nnc1SCC(=O)N1CCCC1	inconclusive: 12.2%	–
Cc1ccc(NC(=O)Cc2ccsc2)cc1Cl	inconclusive: 3.97%	–
Cc1c(NC(=O)c2ccccc2NC(=O)COc2ccccc2)cccc1C(=O)O	–	inconclusive: 22.4 µM [falling, single point]
S=C(NCc1ccccc1)NCc1ccc2c(c1)OCO2	inconclusive: 10.8%	–
O=C(C1=C[C@@H](c2ccc(Br)cc2)C[C@@H](OCCCCO)O1)N1CCN(Cc2ccc3c(c2)OCO3)CC1	inactive: -0.342%	–
O=C(CN1CCC(C(=O)c2ccc(F)cc2)CC1)Nc1ccccc1	inactive: -3.01%	–
CCN(C(=O)c1cc2ccccc2oc1=O)c1cccc(C)c1	inconclusive: -29.6%	–
C=CCOc1ccccc1CNCCNC(=O)c1nonc1N	inactive: 0.272%	–
CC(NC(=O)CCc1ccccc1)c1cc2c(cc1Cl)OCCO2 (configuration not stated)	inactive: 3.83%	–
CCc1ccc(-n2c(SCc3ccccc3C)nc3[nH]ncc3c2=O)cc1	–	inconclusive: 35.5 µM [falling, single point]
Cc1cc(-c2nsc(=O)o2)c(S(C)(=O)=O)s1	inactive: 1.88%	–
COc1ccc(CN(C)S(=O)(=O)c2c(C)noc2C)cc1OC	inconclusive: -1.09%	–
NS(=O)(=O)c1ccc(CCNC(=O)CN2C(=O)c3ccccc3S2(=O)=O)cc1	inconclusive: 14.9%	–
COc1cccc(CNc2ccc(S(=O)(=O)Nc3nccs3)cc2)c1O	–	inconclusive: 20 µM [falling, single point]
CCCCn1c(N)c(N(CCC(C)C)C(=O)C2CC(=O)N(Cc3ccc(C)cc3)C2)c(=O)[nH]c1=O (configuration not stated)	inconclusive: -5.42%	–
COc1ccccc1N1CCN(CCc2n[nH]c(=S)n2-c2ccccc2)CC1	inconclusive: -4.96%	–

Individual results from the entries so far:
Value of CCN(CC(=O)Nc1c(F)cccc1F)C(=O)/C=C/c1ccc(C)cc1 under Potency: inconclusive: 23.1 µM [falling, partial curve]
Value of Cc1cc(-c2nsc(=O)o2)c(S(C)(=O)=O)s1 under activity change, negative = inhibition: inactive: 1.88%
Value of O=C(CN1CCC(C(=O)c2ccc(F)cc2)CC1)Nc1ccccc1 under activity change, negative = inhibition: inactive: -3.01%
